Results published in article PMC12093852 (Cell Communication and Signaling : CCS, 2025).
Results are given in words; binding and its absence hold for the method and conditions named. In cells and extracts the contact can be indirect. Some results given as binding are weak or reduced against the parent protein; the word gives no strength.

Chains of the proteins cited; added tags and fusions are not shown.
UniProt P61073: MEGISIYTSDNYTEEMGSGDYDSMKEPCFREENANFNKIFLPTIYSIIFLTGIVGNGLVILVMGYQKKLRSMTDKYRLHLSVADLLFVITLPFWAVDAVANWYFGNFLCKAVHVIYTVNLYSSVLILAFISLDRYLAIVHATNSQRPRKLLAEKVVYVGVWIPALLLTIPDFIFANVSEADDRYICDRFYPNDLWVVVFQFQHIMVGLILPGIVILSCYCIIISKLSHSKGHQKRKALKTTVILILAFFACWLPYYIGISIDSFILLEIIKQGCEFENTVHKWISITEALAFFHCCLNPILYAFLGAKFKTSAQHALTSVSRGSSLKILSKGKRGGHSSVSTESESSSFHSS
UniProt P32121: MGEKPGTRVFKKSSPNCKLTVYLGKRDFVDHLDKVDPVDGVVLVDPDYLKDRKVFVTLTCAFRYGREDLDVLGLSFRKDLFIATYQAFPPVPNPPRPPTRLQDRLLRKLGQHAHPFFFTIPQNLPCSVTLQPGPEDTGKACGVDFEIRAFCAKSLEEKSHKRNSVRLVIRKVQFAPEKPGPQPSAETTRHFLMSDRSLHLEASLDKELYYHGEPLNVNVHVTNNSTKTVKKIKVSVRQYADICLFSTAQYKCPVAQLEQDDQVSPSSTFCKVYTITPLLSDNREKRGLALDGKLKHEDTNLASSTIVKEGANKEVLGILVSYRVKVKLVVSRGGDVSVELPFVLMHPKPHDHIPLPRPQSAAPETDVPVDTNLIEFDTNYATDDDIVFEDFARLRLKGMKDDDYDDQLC

Key:
GPR15-LgBiT [1] = target: T1, GPR15-LgBiT (UniProt P49685); experiment: condition: only cells stimulated with CXCL12, without GPR15LG; split reporter; NanoBiT β-arrestin-2 recruitment, agonistic measurement, cells treated only with a ligand that did not activate the receptor (GPR15LG on CXCR4-LgBiT cells; CXCL12 on GPR15-LgBiT cells)
T1 sequence: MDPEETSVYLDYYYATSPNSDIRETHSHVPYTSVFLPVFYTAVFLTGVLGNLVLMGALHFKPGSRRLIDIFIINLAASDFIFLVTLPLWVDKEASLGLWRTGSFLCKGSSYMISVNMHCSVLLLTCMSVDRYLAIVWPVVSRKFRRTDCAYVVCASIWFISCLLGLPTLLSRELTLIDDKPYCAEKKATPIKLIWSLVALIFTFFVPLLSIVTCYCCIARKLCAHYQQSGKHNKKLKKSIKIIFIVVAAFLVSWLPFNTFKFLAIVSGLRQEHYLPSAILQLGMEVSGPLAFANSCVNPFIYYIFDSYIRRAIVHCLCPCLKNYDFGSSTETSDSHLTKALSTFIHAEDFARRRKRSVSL

GPR15-LgBiT [2] = target: T1, GPR15-LgBiT; experiment: split reporter; NanoBiT β-arrestin-2 recruitment, agonistic measurement; HEK293T transiently transfected with GPCR-LgBiT and SmBiT-arrestin; serially diluted stimulatory ligand (GPR15LG, CXCL12, AMD3100) for 1 h at 37 °C; fold change of AUC to buffer
[3] = target: CXCR4 N-terminally fused to Nanoluciferase (UniProt P61073); experiment: FRET or BRET; NanoBRET ligand binding competition; HEK293T cells stably expressing the receptor N-terminally fused to Nanoluciferase; increasing concentrations of ligands with 10 nM CXCL12-AZ568; 2 h on ice; only the binder purified

Molecule	binding (GPR15-LgBiT [1])	binding (GPR15-LgBiT [2])	binding [3]
SmBiT-β-arrestin-2 (from UniProt P32121 1-409)	no binding	binds	–
KRRPAKAWSGRRTRLCC [GPR15LG-N (amino acids 25-41 of GPR15LG)]	–	–	binds
